Series [1] in a line: Animal Experiment 1 (Example 1): NaCl, water and feed consumption and body weight of SHRs. The conditions noted are these: 8-15 weeks old (56 days). Type of series: in vivo, rat. The method, then: Seven-week-old male SHRs were divided into 5 groups of 6 to 7 animals. Following 1 week of acclimatization, each group was allowed to feed freely on semi-solid feed for 7 to 8 weeks. The feed given was prepared by adding 40 wt % moisture to powdered feed. To ensure that each SHR would develop hypertension, 1 wt % salt was added to the feed. The animals were allowed to freely drink tap water. Over the course of the test period, each animal was weighed and the feed consumption was measured. Blood pressure was taken from the tail vein every four days between 4 PM and 6 PM. After a 12-hour fasting period, the animals were sacrificed. Serum, liver, and kidney were weighed and subjected to analyses.
The sea water added was NaCl-removed deep sea water (DW) or NaCl-removed surface sea water (SW) prepared by dialyzation through an electrodialyzer (Asahi Kasei) until the conductivity of monovalent ions was decreased to 10 mS/cm.
The Si concentration in the semi-solid feed containing 40% moisture is defined as the amount of Si contained in 1 kg of the feed.

Series [2] is described as follows: Animal Experiment 2 (Example 2): NaCl, water and feed consumption and body weight of SHRs. The conditions noted are these: 7-14 weeks old (49 days). It counts as in vivo, rat. The method, then: Twenty-five 7-week-old male SHRs were divided into 5 groups of 5 animals. Four times as much Si as used in Example 1 was added to the feed given to the rats. Otherwise, the animals were tested under the same conditions as in Example 1. Two types of sea water were added to the powder feed: sea water subjected to NaCl-removing treatment by electrical dialysis and ion-exchanged water. The semi-solid feed containing 1.4 wt % NaCl and 40% moisture was prepared by adding the sea water to powdered feed.

`O.O.O.O.O.O.O.O.O.O=[Si]([O-])[O-].[Na+].[Na+]` [Si, sodium metasilicate nonahydrate]: in series [1], the Feed consumption amounted to 34.5 ± 3.1 g/day/rat; the “Feed consumption, % of Control” value was “[101.9%]”; the NaCl consumption is 344.1 ± 31.0 mg/day/rat; the “NaCl consumption, % of Control” value was “[101.9%]”. In series [1], the Water consumption came to 23.5 ± 5.3 ml/day/rat and the “Water consumption, % of Control” value is “[106.5%]”. Besides, in series [2], the Feed consumption was found to be 29.2 ± 4.8 g/day/rat; the “Feed consumption, % of Control” value is “[104.4%]”; the NaCl consumption is 409.4 ± 58.5 mg/day/rat; the “NaCl consumption, % of Control” value was “[110.3%]”. Moreover, in series [2], the Water consumption came out at 34.8 ± 6.4 ml/day/rat and the “Water consumption, % of Control” value is “[108.4%]”.

Values taken from US7919620B2, “Agent for suppressing blood pressure elevation” (Coral Biotech Kabushiki Kaisha, priority 2005, dated 2011).
